Reference: article PMC10907362
No constants are given. Whether binding was seen depends on the method and setting. In cells and extracts the contact can be indirect. A yes stands for co-enrichment or nearness to the bait. Other partners may have been found. Where a sequence is shown, tags or fusion partners need not be part of it. Each block holds one binder with its values, some of them ahead of it.

Target: T1, Flag-USP40 (in HLMVECs) (human) (UniProt Q9NVE5)
T1 sequence: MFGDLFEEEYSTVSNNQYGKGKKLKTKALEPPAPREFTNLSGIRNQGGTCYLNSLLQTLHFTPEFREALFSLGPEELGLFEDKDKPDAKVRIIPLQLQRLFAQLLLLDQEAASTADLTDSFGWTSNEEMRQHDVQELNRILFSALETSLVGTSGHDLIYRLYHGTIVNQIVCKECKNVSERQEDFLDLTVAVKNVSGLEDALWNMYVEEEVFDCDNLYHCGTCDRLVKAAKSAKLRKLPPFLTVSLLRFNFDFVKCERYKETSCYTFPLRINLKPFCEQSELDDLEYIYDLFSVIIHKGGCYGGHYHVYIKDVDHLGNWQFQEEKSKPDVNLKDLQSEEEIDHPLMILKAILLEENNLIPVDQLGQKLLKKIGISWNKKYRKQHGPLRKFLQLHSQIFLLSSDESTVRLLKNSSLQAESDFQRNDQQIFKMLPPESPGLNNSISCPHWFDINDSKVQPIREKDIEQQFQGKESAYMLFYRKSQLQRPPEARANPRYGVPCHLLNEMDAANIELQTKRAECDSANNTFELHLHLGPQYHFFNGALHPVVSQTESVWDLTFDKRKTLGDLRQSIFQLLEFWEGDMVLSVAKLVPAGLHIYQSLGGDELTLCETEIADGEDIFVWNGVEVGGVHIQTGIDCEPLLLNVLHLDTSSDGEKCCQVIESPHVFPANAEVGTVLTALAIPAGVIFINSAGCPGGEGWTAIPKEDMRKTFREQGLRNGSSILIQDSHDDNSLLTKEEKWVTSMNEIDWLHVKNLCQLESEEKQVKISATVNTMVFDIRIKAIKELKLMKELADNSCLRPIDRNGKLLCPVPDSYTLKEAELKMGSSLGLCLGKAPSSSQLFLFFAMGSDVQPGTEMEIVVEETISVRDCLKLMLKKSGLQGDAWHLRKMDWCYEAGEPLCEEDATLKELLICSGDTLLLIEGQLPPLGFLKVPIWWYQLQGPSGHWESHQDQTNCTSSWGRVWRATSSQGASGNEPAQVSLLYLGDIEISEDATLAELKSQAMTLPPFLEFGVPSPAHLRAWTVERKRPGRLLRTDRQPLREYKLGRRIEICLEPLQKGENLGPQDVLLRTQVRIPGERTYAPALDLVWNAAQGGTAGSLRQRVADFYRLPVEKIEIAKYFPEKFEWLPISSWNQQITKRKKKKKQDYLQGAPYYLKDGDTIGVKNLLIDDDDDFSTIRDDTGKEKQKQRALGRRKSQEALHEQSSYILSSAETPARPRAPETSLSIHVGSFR
Assay: affinity purification with mass spectrometry; Flag-USP40 immunoprecipitated from transfected HLMVECs with FLAG-M2 affinity gel; eluted under reducing conditions, SDS-PAGE, Coomassie, bands excised, in-gel trypsin digestion, LC-MS

B1: Isoform 2 of Highly divergent homeobox (protein, UniProt Q7Z353-2 1-632)
chain: MSSKNSESGTATTGTSLSAPDITVRNVVNIARPSSQQSSWTSANNDVIVTGIYSPASSSSRQGTNKHTDTQITEAHKIPIQKTATKNDTEFQLHIPVQRQVAHCKNASLLLGEKTIILSRQTSVLNAGNSVFNHAKKNYGNSSVQASEMTVPQKPSVCHRPCKIEPVGIQRSYKPEHTGPALHNLCGQKPTIRDPYCRTQNLEIREVFSLAVSDYPQRILGGNAPQKPSSAEGNCLSIAMETGDAEDEYAREEELASMRAQIPSYSRFYESGSSLRAENQSTTLPGPGRNMPNSQMVNIRDMSDNVLYQNRNYHLTPRTSLHTASSTMYSNTNPLRSNFSPHFASSNQLRLSQNQNNYQISGNLTVPWITGCSRKRALQDRTQFSDRDLATLKKYWDNGMTSLGSVCREKIEAVATELNVDCEIVRTWIGNRRRKYRLMGIEVPPPRGGPADFSEQPESGSLSALTPGEEAGPEVGEDNDRNDEVSICLSEGSSQEEPNEVVPNDARAHKEEDHHAVTTDNVKIEIIDDEESDMISNSEVEQVNSFLDYKNEEVKFIENELEIQKQKYFKLQTFVRSLILAMKADDKEQQQALLSDLPPELEEMDFNHASLEPDDTSFSVSSLSEKNVSESL
binding: binds

B4: Isoform 2 of Leucine zipper protein 1 (protein, UniProt Q86V48-2 1-1026)
chain: MAEFTSYKETASSRHLRFKLQSLSRRLDELEEATKNLQKAEDELLDLQDKVIQAEGSNSSMLAEIEVLRQRVLRIEGKDEEIKRAEDLCRLMKEKLEEEENLTRELKSEIERLQKRMAELEKLEEAFSRSKNDCTQLCLSLNEERNLTKKISSELEMLRVKVKELESSEDRLDKTEQSLASELEKLKSLTLSFVSERKYLNEKEKENEKLIKELTQKLEQNKKMNRDYTRNASNLERNDLRIEDGISSTLPSKESRRKGGLDYLKQVENETRNKSENEKNRNQEDNKVKDLNQEIEKLKTQIKHFESLEEELKKMKSKNNDLQDNYLSEQNKNKLLASQLEEIKLQIKKQKELENGEVEGEDAFLSSKGRHERTKFRGHGSEASVSKHTARELSPQHKRERLRNREFALNNENYSLSNRQVSSPSFTNRRAAKASHMGVSTDSGTQETKKTEDRFVPGSSQSEGKKSREQPSVLSRYPPAAQEHSKAWKGTSKPGTESGLKGKVEKTTRTFSDTTHGSVPSDPLGRADKASDTSSETVFGKRGHVLGNGSQVTQAANSGCSKAIGALASSRRSSSEGLSKGKKAANGLEADNSCPNSKAPVLSKYPYSCRSQENILQGFSTSHKEGVNQPAAVVMEDSSPHEALRCRVIKSSGREKPDSDDDLDIASLVTAKLVNTTITPEPEPKPQPNSREKAKTRGAPRTSLFENDKDAGMENESVKSVRASTNTMELPDTNGAGVKSQRPFSPREALRSRAIIKPVIVDKDVKKIMGGSGTETTLEKQKPVSKPGPNKVTSSITIYPSDSSSPRAAPGEALRERHTSTSNIQVGLAELTSVSNHVSSPFELSIHKHDITLQLAEAERMADGPLKDRPETVVSRSSIIIKPSDPVERNSHAPPAETIRWKSHSAPSEVGFSDARHVTVRNAWKSRRDLKSLEDPPTRIGKNVESTNSNAYTQRSSTDFSELEQPRSCLFEQGTRRVGPSSGDAPEPSSRRTQSSLTVSEVLTRRNRVGDTITVAAWNHSASMSS
binding: binds

Second part, the binder after the results:

binding: binds
B2: Zyxin (protein, UniProt B4DQR8 1-485)
chain: MGRVGEIPPPPPEDFPLPPPPLAGDGDDAEGALGGAFPPPPPPIEESFPPAPLEEEIFPSPPPPPEEEGGPEAPIPPPPQVSSGYVPPPVATPFSSKSSTKPAAGGTAPLPPWKSPSSSQPLPQVPAPAQSQTQFHVQPQPQPKPQVQLHVQSQTQPVSLANTQPRGPPASSPAPAPKFSPVTPKFTPVASKFSPGAPGGSGSQPNQKLGHPEALSAGTGSPQPPSFTYAQQREKPRVQEKQHPVPPPAQNQNQVRSPGAPGPLTLKEVEELEQLTQQLMQDMEHPQRQNVAVNELCGRCHQPLARAQPAVRALGQLFHIACFTCHQCAQQLQGQQFYSLEGAPYCEGCYTDTLEKCNTCGEPITDRMLRATGKAYHPHCFTCVVCARPLEGTSFIVDQANRPHCVPDYHKQYAPRCSVCSEPIMPEPGRDETVRVVALDKNFHMKCYKCEDCGKPLSIEADDNGCFPLDGHVLCRKCHTARAQT

binding: binds
B3: Nuclear fragile X mental retardation-interacting protein 2 (protein, UniProt Q7Z417 1-695)
chain: MEEKPGQPQPQHHHSHHHPHHHPQQQQQQPHHHHHYYFYNHSHNHHHHHHHQQPHQYLQHGAEGSPKAQPKPLKHEQKHTLQQHQETPKKKTGYGELNGNAGEREISLKNLSSDEATNPISRVLNGNQQVVDTSLKQTVKANTFGKAGIKTKNFIQKNSMDKKNGKSYENKSGENQSVDKSDTIPIPNGVVTNNSGYITNGYMGKGADNDGSGSESGYTTPKKRKARRNSAKGCENLNIVQDKIMQQETSVPTLKQGLETFKPDYSEQKGNRVDGSKPIWKYETGPGGTSRGKPAVGDMLRKSSDSKPGVSSKKFDDRPKGKHASAVASKEDSWTLFKPPPVFPVDNSSAKIVPKISYASKVKENLNKTIQNSSVSPTSSSSSSSSTGETQTQSSSRLSQVPMSALKSVTSANFSNGPVLAGTDGNVYPPGGQPLLTTAANTLTPISSGTDSVLQDMSLTSAAVEQIKTSLFIYPSNMQTMLLSTAQVDLPSQTDQQNLGDIFQNQWGLSFINEPSAGPETVTGKSSEHKVMEVTFQGEYPATLVSQGAEIIPSGTEHPVFPKAYELEKRTSPQVLGSILKSGTTSESGALSLEPSHIGDLQKADTSSQGALVFLSKDYEIESQNPLASPTNTLLGSAKEQRYQRGLERNDSWGSFDLRAAIVYHTKEMESIWNLQKQDPKRIITYNEAMDSPDQ

binding: binds
B5: Isoform 2 of RNA-binding protein 10 (protein, UniProt P98175-2 1-929)
chain: MEYERRGGRGDRTGRYGATDRSQDDGGENRSRDHDYRDMDYRSYPREYGSQEGKHDYDDSSEEQSAEDSYEASPGSETQRRRRRRHRHSPTGPPGFPRDGDYRDQDYRTEQGEEEEEEEDEEEEEKASNIVMLRMLPQAATEDDIRGQLQSHGVQAREVRLMRNKSSGQSRGFAFVEFSHLQDATRWMEANQHSLNILGQKVSMHYSDPKPKINEDWLCNKCGVQNFKRREKCFKCGVPKSEAEQKLPLGTRLDQQTLPLGGRELSQGLLPLPQPYQAQGVLASQALSQGSEPSSENANDTIILRNLNPHSTMDSILGALAPYAVLSSSNVRVIKDKQTQLNRGFAFIQLSTIEAAQLLQILQALHPPLTIDGKTINVEFAKGSKRDMASNEGSRISAASVASTAIAAAQWAISQASQGGEGTWATSEEPPVDYSYYQQDEGYGNSQGTESSLYAHGYLKGTKGPGITGTKGDPTGAGPEASLEPGADSVSMQAFSRAQPGAAPGIYQQSAEASSSQGTAANSQSYTIMSPAVLKSELQSPTHPSSALPPATSPTAQESYSQYPVPDVSTYQYDETSGYYYDPQTGLYYDPNSQYYYNAQSQQYLYWDGERRTYVPALEQSADGHKETGAPSKEGKEKKEKHKTKTAQQIAKDMERWARSLNKQKENFKNSFQPISSLRDDERRESATADAGYAILEKKGALAERQHTSMDLPKLASDDRPSPPRGLVAAYSGESDSEEEQERGGPEREEKLTDWQKLACLLCRRQFPSKEALIRHQQLSGLHKQNLEIHRRAHLSENELEALEKNDMEQMKYRDRAAERREKYGIPEPPEPKRRKYGGISTASVDFEQPTRDGLGSDNIGSRMLQAMGWKEGSGLGRKKQGIVTPIEAQTRVRGSGLGARGSSYGVTSTESYKETLHKTMVTRFNEAQ
